Results are given in words; binding and its absence hold for the method and conditions named.

For this assay, the target named is T1, Canarypox virus CNP058 lacking the C-terminal transmembrane domain (residues 1–143) (canarypox virus) (UniProt Q6VZT9).
T1 sequence: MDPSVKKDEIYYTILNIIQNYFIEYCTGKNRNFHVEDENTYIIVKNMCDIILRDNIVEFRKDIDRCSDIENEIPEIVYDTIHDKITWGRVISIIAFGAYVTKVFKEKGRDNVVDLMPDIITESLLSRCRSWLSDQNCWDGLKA
Nature of the assay: SEC.

With “Canarypox virus CNP058 lacking the C-terminal transmembrane domain (residues 1–143) (from UniProt Q6VZT9 1-143) (domain or fragment)”, the binding result is “no binding”.
